# Data as given in the supplement of paper PMC12889115.
# The list shows a part of the results. Values are raw readings; no control value is given beside them.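 First-pass screen: polymyxin B was added at a level that permeabilizes the Salmonella outer membrane while sparing the inner membrane. DMSO wells, with and without polymyxin B, defined maximum growth. Because plates differed from one another, each plate's data were ranked separately and the compounds with the lowest OD600 were carried forward as hits.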
# System: Salmonella enterica serovar Typhimurium SL1344
# Test: bacterial growth OD600 after 18 h with compound and polymyxin B; higher = more bacterial growth (less inhibition)
# Details: 50 µM, Mueller-Hinton broth
SMILES,bacterial growth OD600 (polymyxin B 0.75 µg/mL),bacterial growth OD600 (polymyxin B 1 µg/mL)
O=C(COc1ccccc1)Nc1ccc(N2CCC(NCCC3=CCCCC3)CC2)cc1,0.877,
CN(C1CCN(Cc2ccccn2)CC1)C1CCCN(CCc2ccccc2)C1 (stereo unspecified),,0.976
COc1ccc(N2CCN(C3CCCN(CC4CC4)C3)CC2)cc1 (stereo unspecified),,1.33
C=CCNC(=O)N1CCC(Cc2ccc(Cl)cc2)(C(=O)OCC)CC1,,0.043
Cc1nc(N2CCCC2C(=O)NCC2(O)CCCCC2)nc2cc(S(C)(=O)=O)ccc12 (stereo unspecified),0.756,
O=C(CCc1ccccc1F)N1CCc2[nH]nc(-c3cccc(F)c3)c2C1,0.005,
CC(C)CCN(C)C(=O)c1coc(COc2ccc(F)cc2)n1,,0.921
COC(=O)[C@H](Cc1ccccc1)NC(=O)CCC1(Cc2ccc(OC)c3ccccc23)CCC(=O)N1 (stereo partly specified),0.845,
CCCc1cc(CNC(=O)c2ccc(NC3CCOC(C)(C)C3)nc2)on1 (stereo unspecified),0.889,
Cc1cc(C)n(CCN(C)C(=O)c2cc(Cn3ccnc3C(C)C)[nH]n2)n1,,1.08
Cc1ccccc1CCC1CCCN(C(=O)c2cccnc2)C1 (stereo unspecified),0.007,
Cc1onc(-c2ccccc2)c1C(=O)N1CCCC(Nc2ccc3c(c2)OCCO3)C1 (stereo unspecified),,0.913
COc1ccc(-c2ccccc2NC(=O)C2CCCN(C3CCCC3)C2)cc1 (stereo unspecified),,0.886
COc1cccc(NC(=O)CCC2CCN(C(=O)c3ccoc3)CC2)c1,,1.25
Cc1ccccc1CCN1CCCC(CN(C)C(=O)/C=C/c2cccnc2)C1 (stereo unspecified),1.01,
Cn1cc(CN2CCC(C(=O)Nc3ccc(-c4nc5ccccc5o4)cc3)CC2)cn1,,1.1

SMILES,bacterial growth OD600 (polymyxin B 0.75 µg/mL),bacterial growth OD600 (polymyxin B 1 µg/mL)
CCc1nc(C)c(C(=O)NC2CC(=O)N(Cc3cccc(F)c3)C2)o1 (stereo unspecified),,0.914
Cc1n[nH]c(C)c1CNC(=O)c1cc(COc2cccc(F)c2)[nH]n1,0.872,
COc1ccc(NC(=O)CCC2CCCN(Cc3ccc4nonc4c3)C2)cc1Cl (stereo unspecified),,0.808
COC(=O)C1CCN(C(=O)CC2(c3ccc(-c4ccccc4)cc3)CC(=O)N(C3CC3)C2=O)CC1 (stereo unspecified),0.585,
Cc1cc(C)n(Cc2cc(C(=O)NCCc3cnn(C)c3)n[nH]2)n1,,1.14
Cc1nnc(CN(C)Cc2cn(Cc3ccccc3)nc2-c2ccc3c(c2)OCO3)o1,,0.984
COCC1CCN(C(=O)CCc2nnc(C3(c4ccc(Cl)cc4)CCC3)o2)CC1,0.756,
COc1cccc(-c2noc(-c3ccc(NCc4ccc(C)o4)nc3)n2)c1OC,0.523,
c1ccc(CCN2CCC(C3CCN(Cc4ccccn4)CC3)C2)cc1 (stereo unspecified),0.878,
C=C(C)CN(C)C(=O)Cc1c2c(n(Cc3ccccc3F)c1C)CCCC2=O,,0.656
COc1ccc(CNC(=O)CCN2Cc3ccccc3OC(c3ccccc3F)C2)cc1OC (stereo unspecified),0.662,
C=CCOc1cccc(C(=O)N2CCCC(Nc3ccc(F)cc3)C2)c1 (stereo unspecified),,0.726
COCCn1cc(C(=O)NC2CCCCCCC2)c(=O)c(C(=O)N2CCCC(C)C2)c1 (stereo unspecified),0.976,
Cc1ccccc1CN1CCC(N2CCCC(C(=O)NC3CC3)C2)CC1 (stereo unspecified),0.849,
CCC(=O)NC(C)c1cnc(N(C)C2CCCCC2)nc1C (stereo unspecified),,0.888

# A draw from above in order of heavy-atom count, largest number first:
SMILES,bacterial growth OD600 (polymyxin B 0.75 µg/mL),bacterial growth OD600 (polymyxin B 1 µg/mL)
COc1ccc(CNC(=O)CCN2Cc3ccccc3OC(c3ccccc3F)C2)cc1OC (stereo unspecified),0.662,
O=C(COc1ccccc1)Nc1ccc(N2CCC(NCCC3=CCCCC3)CC2)cc1,0.877,
COc1cccc(-c2noc(-c3ccc(NCc4ccc(C)o4)nc3)n2)c1OC,0.523,
CCCc1cc(CNC(=O)c2ccc(NC3CCOC(C)(C)C3)nc2)on1 (stereo unspecified),0.889,
COc1cccc(NC(=O)CCC2CCN(C(=O)c3ccoc3)CC2)c1,,1.25
CCc1nc(C)c(C(=O)NC2CC(=O)N(Cc3cccc(F)c3)C2)o1 (stereo unspecified),,0.914
Cc1cc(C)n(Cc2cc(C(=O)NCCc3cnn(C)c3)n[nH]2)n1,,1.14
